Consider 1 molecule from patent US20230210735A1, “PREVENTION, REDUCTION, OR AMELIORATION OF OLD PERSON SMELL” (Firmenich SA, priority 2020, published 2023).

The nature of this series: Sensory evaluation of rancidity in ranch salad dressing. Particulars: grade 1-5.

With `CCCCCCCCCCN(C)C.O=C(O)C(=O)Cc1ccccc1` [DiMeC10A-PhPA], the “Average rancidity of treated oil” value stood at 1 (50 mins since addition), 1 (6 hrs since addition) and 1.5 (26 hrs since addition).
